Results from patent US6861431B2, “Compounds capable of modulating the activity of multidrug transporters and therapeutic use of the same” (The Board of Trustees of the University of Illinois, priority 2001, dated 2005).
“And” between values parts separate entries of the source, which are not always exact repeats. Identical values can stand only once. “Also recorded” adds a separate entry of the source. For at least one compound, name, drawing or mass did not settle the structure.

Key:
[1] = tested on: P-gp; test: Cell surface expression of P-gp, FACS with UIC2 antibodies; type: cell-based, human; settings: KB-8-5-11 cells, four-hour incubation with compound
[2] = tested on: P-gp; settings: value = drug
Description: Drug sensitivity assays. To estimate drug-mediated growth inhibition, 10^3 cells were plated per well of 96-well plates, and incubated with a range of concentrations of drugs added 24 hours after plating. After 5 to […] of drug treatment, plates were fixed and stained using 2% methylene blue solution in 50% methanol. After elution by 1% SDS solution, optical density was determined on a Multiscan Ascent reader (Lybsystems, Helsinki, Finland) at 650 nm.
Drug accumulation and efflux assay. […] For drug efflux assay, cells after drug incubation were washed thoroughly with PBS, incubated in a drug-free media with or without compounds from the chemical library, and harvested at different time points for flow cytometric analysis (18).

[3] = *only resistance was tested, **only efflux was tested

Compound: Cc1ccc(-c2cn3c4c(sc3n2)CCCC4)cc1 [Compound 102, 2-p-Tolyl-5,6,7,8-tetrahydro-benzo[d]imidazo[2,1-b]thiazole]
- amount of P-gp on the cell surface [1]: did not change
- No effect (drugs not affected by Compound 102) ([2]; ***non-P-gp substrates): Camptothecin*** and Carboplatin*** and 5-fluorouracil*** and Colcemide and Colchicine and Actinomycin D and Puromycin
- Decreased resistance/efflux (drugs so affected by Compound 102) [2, 3]: Taxol; also recorded: Vinblastin*; also recorded: Vincristin*; also recorded: Hoechst 33342**
- Increased resistance/efflux (drugs so affected by Compound 102) [2, 3]: Adriamycin; also recorded: Daunorubicin; also recorded: Etoposide*; also recorded: Rhodamine 123**
